Test results as given in patent US11236341.
For at least one entry, the source does not settle the construct or the ends of the probe.

Target: Transferrin receptor (TfR, TFRC) extracellular domain (UniProt P02786)
Experiment: SELEX
Conditions: 2'-F pyrimidines (2'F-U, 2'F-C); isolated after 12 rounds against His-TfR; Cy3-TR18 tested for internalization in HepG2; 30 mM Tris-HCl, 150 mM NaCl, 1.5 mM MgCl2, 2 mM DTT, 1% BSA, room temperature; purified recombinant protein; protein details: His-tag, Sino Biological 11020-HO7H; label: Cy3 for cell imaging; variant of TR14

GGGAGACAAGAAUAAACGCUCAAUGCGUUUACGUUUAUUCACAUUUUUGAAUUGAGCAUGAGCUUCGACAGGAGGCUCACAACAGGC [TR18]
selection result: selected
